Data published in publication PMC7217150, “Synthesis, Modification, and Biological Evaluation of a Library of Novel Water‐Soluble Thiopyridone‐Based Organometallic Complexes and Their Unexpected (Biological) Behavior” (Chemistry (Weinheim an Der Bergstrasse, Germany), 2020).

Test system: HCT‐116 (colon cancer) spheroids
Conditions: HCT‐116 spheroids, respective IC50 concentration, 96 h, LA‐ICP‐TOF‐MS

Row | Compound | metal distribution in spheroid sections
1 | CC1=C2[O][Rh+]([Cl])[S]=C2C=CN1C.Cc1c(C)c(C)[c-](C)c1C [Compound 5 a, Chlorido[1,2‐dimethyl‐3‐oxo‐κO‐pyridine‐4(1H)‐thionato‐κS](η^5‐1,2,3,4,5‐pentamethylcyclopentadienyl)rhodium(III)] | accumulated throughout the spheroid sections with higher concentrations at the outer cell layers
2 | CC1=C2[O][Ir+]([Cl])[S]=C2C=CN1C.Cc1c(C)c(C)[c-](C)c1C [Compound 6 a, Chlorido[1,2‐dimethyl‐3‐oxo‐κO‐pyridine‐4(1H)‐thionato‐κS](η^5‐1,2,3,4,5‐pentamethylcyclopentadienyl)iridium(III)] | enrichment at the outer rim of the tumor spheroid section
